Measurements reported in PubChem BioAssay AID504793 (Drosophila RNAi Screening Center, 2011).
The screen tested about 23,000 reagents; shown is an unselected part of those that have a named target and a result. Over the whole deposit, 62 (0.27%) are marked active. 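Calls come from follow-up tests whose scores are not deposited, so confirmed genes may have low counts here; counts are not normalised per plate.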 The raw values are shown without normalisation. A number with no mark means an inactive call.

Assay: 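Whole-genome screen for parts of the DNA damage checkpoint at G2/M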 (primary screen)
System: Drosophila S2R+ cells
Knock-down reagent: long dsRNA against Drosophila genes, about 0.25 µg dsRNA per well
Duration: 4 days of dsRNA, then 4 hours of drug before read-out
Treatment: doxorubicin 0.5 µM for 4 hours to cause double-strand breaks, in cells also given a low, harmless dose of dsRNA against nbs to sensitise the assay
Measured: 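Per-well count of mitotic cells stained for phospho-histone H3 after doxorubicin exposure, used as mitotic index; counts are raw and not normalised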
Reading the numbers: mitotic cells: higher = more cells in mitosis, weaker G2 arrest
Rule for the call: 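a call needs confirmation in secondary tests, with other dsRNAs and a check of mitotic timing without damage, not just a high primary count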
Calls: active = confirmed in follow-up tests; inactive = not confirmed

With knock-down of ppk20 (GeneID 43486) [DRSC16260] the results were mitotic cells, replicate 1 = 31. With knock-down of ppk20 (GeneID 43486) [DRSC28819], the record shows mitotic cells, replicate 1 = 8. CG7656 (GeneID 39691) [DRSC10900] showed mitotic cells, replicate 1 = 11. CG2854 (GeneID 31219) [DRSC18595] showed mitotic cells, replicate 1 = 6. Knock-down of CG30389 (GeneID 37410) [DRSC04077] gave: mitotic cells, replicate 1 = 3. Depletion of CG30389 (GeneID 37410) [DRSC04452] gave: mitotic cells, replicate 1 = 9.

Against CG30389 (GeneID 37410) [DRSC26370], the values are mitotic cells, replicate 1 = 10. Depletion of tbrd-1 (GeneID 42823) [DRSC14601] came out at: mitotic cells, replicate 1 = 9. CG11807 (GeneID 36683) [DRSC06087] showed mitotic cells, replicate 1 = 8. Against CG17564 (GeneID 35205) [DRSC02626], the values are mitotic cells, replicate 1 = 4. After knock-down of CG17564 (GeneID 35205) [DRSC26542], the screen gave mitotic cells, replicate 1 = 6. For Lgr3 (GeneID 43098) [DRSC15704] the deposit lists mitotic cells, replicate 1 = 17.

Against Lgr3 (GeneID 43098) [DRSC15706], the entry reads mitotic cells, replicate 1 = 11.

In a second layout: 5 of the entries above
{"gene": "CG2854 (GeneID 31219)", "amplicon": "DRSC18595", "mitotic cells, replicate 1": 6}
{"gene": "CG30389 (GeneID 37410)", "amplicon": "DRSC04077", "mitotic cells, replicate 1": 3}
{"gene": "CG30389 (GeneID 37410)", "amplicon": "DRSC04452", "mitotic cells, replicate 1": 9}
{"gene": "CG30389 (GeneID 37410)", "amplicon": "DRSC26370", "mitotic cells, replicate 1": 10}
{"gene": "tbrd-1 (GeneID 42823)", "amplicon": "DRSC14601", "mitotic cells, replicate 1": 9}

Continued.
Knock-down of CG32700 (GeneID 31896) [DRSC17857] resulted in: mitotic cells, replicate 1 = 7. CG32700 (GeneID 31896) [DRSC17858] gave mitotic cells, replicate 1 = 7. Depletion of CG14297 (GeneID 42260) [DRSC14776] came out at: mitotic cells, replicate 1 = 7. For CG14312 (GeneID 42195) [DRSC14791] the deposit lists mitotic cells, replicate 1 = 6. Knock-down of Ublcp1 (GeneID 42726) [DRSC14149] gave: mitotic cells, replicate 1 = 6. After knock-down of Ublcp1 (GeneID 42726) [DRSC28057] the results were mitotic cells, replicate 1 = 4.

For Pif1 (GeneID 33567) [DRSC00582], the values are mitotic cells, replicate 1 = 4. After knock-down of PK2-R1 (GeneID 41639) [DRSC16447], the screen gave mitotic cells, replicate 1 = 3. After knock-down of PK2-R1 (GeneID 41639) [DRSC24363] the results were mitotic cells, replicate 1 = 5. For CG5708 (GeneID 34361) [DRSC02881], the values are mitotic cells, replicate 1 = 3. CG10680 (GeneID 35282) [DRSC02093] scored mitotic cells, replicate 1 = 9. After knock-down of Axs (GeneID 32645) [DRSC19333] the results were mitotic cells, replicate 1 = 11.

With knock-down of whe (GeneID 33121) [DRSC20537], the screen gave mitotic cells, replicate 1 = 6. whe (GeneID 33121) [DRSC26236] showed mitotic cells, replicate 1 = 1. mRpS26 (GeneID 40001) [DRSC10823] showed mitotic cells, replicate 1 = 6. mRpS26 (GeneID 40001) [DRSC27288] scored mitotic cells, replicate 1 = 8. CG31342 (GeneID 41592) [DRSC15349] showed mitotic cells, replicate 1 = 6. With knock-down of CG31342 (GeneID 41592) [DRSC16246], the record shows mitotic cells, replicate 1 = 6.

Silencing of CG14736 (GeneID 41466) [DRSC14956] came out at: mitotic cells, replicate 1 = 5. CG14736 (GeneID 41466) [DRSC23985] showed mitotic cells, replicate 1 = 6. Against Nepl5 (GeneID 33892) [DRSC03241] the deposit lists mitotic cells, replicate 1 = 10. For Nepl5 (GeneID 33892) [DRSC29153], the entry reads mitotic cells, replicate 1 = 5.
